Measured data: PubChem BioAssay AID743454 (Peter MacCallum Cancer Centre, 2014)
Screen: 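Genes whose loss kills vorinostat-resistant colon cancer cells under vorinostat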 (primary screen). Cells: human HCT116-VR colon cancer cells, selected for vorinostat resistance. Reagents: siRNA pool against human genes, 40 nM siRNA pool. Duration: vorinostat for 24 h, read-out about 72 h after transfection. Conditions: vorinostat at 2.5 µM final. Measurement: 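Cell viability by CellTiter-Fluor and caspase 3/7 activity by luminescence, each scaled to mock wells per plate, duplicates averaged, then robust z-scored over all plates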. Direction: viability robust z-score: higher = more viable cells than screen typical; caspase robust z-score: higher = more caspase 3/7 activity than screen typical. Hit rule: 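Hits are knock-downs in viability class RV1/RV2 or caspase class CA1/CA2, excluding ones that killed cells in the no-drug cell-count arm; hits then retested with single siRNAs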.
The whole screen tested about 18,000 reagents; this is a random part of them. 450 of them (2.5%) were called active. 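Single biological run; no consistent viability z cut-off exists, so the class columns, not z-scores, define the calls.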 Unmarked entries are inactive.

The opening 2 entries as a preview:
{"gene": "KLHL40 (kelch like family member 40)", "viability hit class": "no change", "caspase hit class": "no change", "viability robust z-score": 0.78, "caspase robust z-score": -0.18}
{"gene": "TAF1C", "viability hit class": "no change", "caspase hit class": "no change", "viability robust z-score": -0.48, "caspase robust z-score": -0.54}

The listing, from the first entry:
{"gene": "KLHL40 (kelch like family member 40)", "viability hit class": "no change", "caspase hit class": "no change", "viability robust z-score": 0.78, "caspase robust z-score": -0.18}
{"gene": "TAF1C", "viability hit class": "no change", "caspase hit class": "no change", "viability robust z-score": -0.48, "caspase robust z-score": -0.54}
{"gene": "GLP1R (glucagon like peptide 1 receptor)", "viability hit class": "no change", "caspase hit class": "no change", "viability robust z-score": 0.13, "caspase robust z-score": 1.01}
{"gene": "DNAJC3 (DnaJ heat shock protein family (Hsp40) member C3)", "viability hit class": "no change", "caspase hit class": "no change", "viability robust z-score": 0.03, "caspase robust z-score": 1.55}
{"gene": "OR4B1 (olfactory receptor family 4 subfamily B member 1)", "viability hit class": "no change", "caspase hit class": "no change", "viability robust z-score": 1.01, "caspase robust z-score": -0.62}
{"gene": "TTBK2 (tau tubulin kinase 2)", "viability hit class": "no change", "caspase hit class": "no change", "viability robust z-score": -0.18, "caspase robust z-score": 1.14}
{"gene": "FERMT3 (FERM domain containing kindlin 3)", "viability hit class": "no change", "caspase hit class": "no change", "viability robust z-score": 0.95, "caspase robust z-score": -0.12}
{"gene": "MORC1 (MORC family CW-type zinc finger 1)", "viability hit class": "no change", "caspase hit class": "no change", "viability robust z-score": -1.01, "caspase robust z-score": 1.3}
{"gene": "ALOXE3 (arachidonate epidermal lipoxygenase 3)", "viability hit class": "no change", "caspase hit class": "no change", "viability robust z-score": -0.77, "caspase robust z-score": 1.66}
{"gene": "PLK4 (polo like kinase 4)", "viability hit class": "no change", "caspase hit class": "no change", "viability robust z-score": -1.38, "caspase robust z-score": 4.23}
{"gene": "FBXL15 (F-box and leucine rich repeat protein 15)", "viability hit class": "no change", "caspase hit class": "no change", "viability robust z-score": -0.24, "caspase robust z-score": -0.34}
{"gene": "COX19 (cytochrome c oxidase assembly factor COX19)", "viability hit class": "no change", "caspase hit class": "no change", "viability robust z-score": 0.57, "caspase robust z-score": -0.88}
{"gene": "C3orf52 (chromosome 3 open reading frame 52)", "viability hit class": "no change", "caspase hit class": "no change", "viability robust z-score": -0.52, "caspase robust z-score": -0.79}
{"gene": "C8orf34 (chromosome 8 open reading frame 34)", "viability hit class": "no change", "caspase hit class": "no change", "viability robust z-score": 0.32, "caspase robust z-score": -0.92}
{"gene": "ZMYND15 (zinc finger MYND-type containing 15)", "viability hit class": "no change", "caspase hit class": "no change", "viability robust z-score": -0.58, "caspase robust z-score": -0.3}
{"gene": "LIN28A (lin-28 RNA binding posttranscriptional regulator A)", "viability hit class": "no change", "caspase hit class": "no change", "viability robust z-score": 0.55, "caspase robust z-score": 0.52}
{"gene": "IPO4 (importin 4)", "viability hit class": "no change", "caspase hit class": "no change", "viability robust z-score": 1.12, "caspase robust z-score": 1.17}
{"gene": "PPM1K (protein phosphatase, Mg2+/Mn2+ dependent 1K)", "viability hit class": "no change", "caspase hit class": "no change", "viability robust z-score": -0.24, "caspase robust z-score": -0.22}
{"gene": "ASB9 (ankyrin repeat and SOCS box containing 9)", "viability hit class": "no change", "caspase hit class": "no change", "viability robust z-score": -1, "caspase robust z-score": 1.38}
{"gene": "PAX4 (paired box 4)", "viability hit class": "no change", "caspase hit class": "no change", "viability robust z-score": -0.02, "caspase robust z-score": -0.99}
{"gene": "SH3PXD2A (SH3 and PX domains 2A)", "viability hit class": "no change", "caspase hit class": "no change", "viability robust z-score": -0.46, "caspase robust z-score": 0.59}
